Experimental data reported in PMC4873810.
Results are given in words; binding and its absence hold for the method and conditions named. Binding seen in cells or lysates may run through a third protein. Sequences can lack the tags named with a protein.

Target: T1, Scube2 (signal peptide, CUB domain, epidermal growth factor (EGF)-like protein 2), full-length, FLAG-tagged (human) (UniProt Q9NQ36)
T1 sequence: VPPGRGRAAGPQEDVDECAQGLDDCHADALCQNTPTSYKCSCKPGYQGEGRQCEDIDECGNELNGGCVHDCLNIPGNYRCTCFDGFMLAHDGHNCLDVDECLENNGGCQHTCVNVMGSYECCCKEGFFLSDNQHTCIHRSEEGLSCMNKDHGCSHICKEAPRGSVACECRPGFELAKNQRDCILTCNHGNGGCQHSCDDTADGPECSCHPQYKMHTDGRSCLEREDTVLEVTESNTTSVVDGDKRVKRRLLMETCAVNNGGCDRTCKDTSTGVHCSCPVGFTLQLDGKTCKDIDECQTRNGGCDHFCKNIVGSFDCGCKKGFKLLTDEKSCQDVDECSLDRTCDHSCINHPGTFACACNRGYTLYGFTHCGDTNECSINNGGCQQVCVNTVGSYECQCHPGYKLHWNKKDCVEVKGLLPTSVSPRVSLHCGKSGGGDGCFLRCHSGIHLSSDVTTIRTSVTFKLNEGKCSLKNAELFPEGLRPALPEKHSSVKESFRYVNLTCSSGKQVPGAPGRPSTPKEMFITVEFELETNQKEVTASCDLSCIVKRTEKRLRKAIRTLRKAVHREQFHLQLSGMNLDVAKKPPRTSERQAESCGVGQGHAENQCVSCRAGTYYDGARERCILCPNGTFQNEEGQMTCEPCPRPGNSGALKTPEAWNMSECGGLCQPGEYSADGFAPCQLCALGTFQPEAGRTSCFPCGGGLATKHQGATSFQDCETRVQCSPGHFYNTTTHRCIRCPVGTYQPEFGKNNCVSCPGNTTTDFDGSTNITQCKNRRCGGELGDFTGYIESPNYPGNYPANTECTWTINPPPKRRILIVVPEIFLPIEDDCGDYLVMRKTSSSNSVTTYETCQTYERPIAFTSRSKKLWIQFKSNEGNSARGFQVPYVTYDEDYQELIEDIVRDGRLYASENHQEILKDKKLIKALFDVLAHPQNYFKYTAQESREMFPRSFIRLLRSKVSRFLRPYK
Assay: co-IP; reciprocal: α-FLAG antibodies coupled to Protein A beads precipitate Scube2 or Scube2Δ from media; blot for Shh

full-length Shh^C25S (mouse)
binding: no binding
